No constants are given. Whether binding was seen depends on the method and setting. For some of these results: Binding calls can cover weak binding; strength is not graded here.
How the values were obtained:
Assay in all cases: two-hybrid; yeast strain Y2HGold; ORFs in PGBKT7, ATP synthase subunits in pGADT7; cotransformants on SD/-Leu/-Trp, serial dilutions on SD/-Leu/-Trp/-His-Ade, 30°C, 3-5 days
[1] = target: ORF222a protein (B. oleracea var. capitata (C5-type CMS line; cytoplasm derived from B. napus)) (UniProt Q6YSS0)
[2] = target: ORF188a protein (B. oleracea var. capitata (C5-type CMS line; cytoplasm derived from B. napus))
[3] = target: ORF261a protein (B. oleracea var. capitata (C5-type CMS line; cytoplasm derived from B. napus))

Row | binding [1] | binding [2] | binding [3] | Molecule
1 | binds | – | – | ATP17 homolog ATP17-2 (Bo7g114140) (from UniProt A0A0D3DGW6)
2 | no binding | no binding | no binding | ATP8 (F1F0-ATP synthase subunit 8) (protein, UniProt G4XYH7 1-158) MPQLDKFTYFSQFFWLCLFFFTFYIFICNDGDGVLGISRILKLRNQLLSHRGKTIQSKDPNSLEDLLRKGFSTGVSYMYASLFEVSQWCKAVDLLGKRRKITLISCFGEISGSRGMERNILYNISKSSPSNTGRWITCRNCRNDIMLIHVVHGQGSIK
3 | no binding | no binding | no binding | ATP4 (F1F0-ATP synthase subunit b) (protein, UniProt G4XYF7 1-192) MRLSSTNMDARKMLFAAILSICALSSKKISIYNEEMIVALCFIGFIIFSRKSLGTTFKATLDGRIQAIQEESQQFPNPNEVVPPESNEQQRLLRISLRICGTVVESLPMARCAPKCEKTVQALLCRNLNVKSATLTNATSSRRIRFQDDLVTKFYTLVGNQFAYSSISKAERVEFIRESLVVLRMVRGGGFS
4 | no binding | no binding | no binding | ATP6 (F1F0-ATP synthase subunit a) (protein, UniProt G4XYF6 1-261) MNQIGLVAQSPLDQFEIVPLIPMNIGNFYFSFTNPSLFMLLTLSFFLLLIHFITKKGGGNLVPNAWQSLVELLYDFVLNLVKEQIGGLSGNVKQMFFPCILVTFLFLLFCNLQGMIPYSFTVTSHFLITLALSFSIFIGITIVGFQRHGLHFFSFLLPAGVPLPLAPFLVLLELISYCFRALSLGIRLFANMMAGHSLVKILSGFAWTMLCMNEIFYFIGALGPLFIVLALTGLELGVAILQAYVFTILICIYLNDAINLH

From publication PMC9549296
